In this assay the target is T1, CTCF (endogenous, rat Schwann cells) (rat (endogenous in primary rat Schwann cells)) (UniProt Q9R1D1).
T1 sequence: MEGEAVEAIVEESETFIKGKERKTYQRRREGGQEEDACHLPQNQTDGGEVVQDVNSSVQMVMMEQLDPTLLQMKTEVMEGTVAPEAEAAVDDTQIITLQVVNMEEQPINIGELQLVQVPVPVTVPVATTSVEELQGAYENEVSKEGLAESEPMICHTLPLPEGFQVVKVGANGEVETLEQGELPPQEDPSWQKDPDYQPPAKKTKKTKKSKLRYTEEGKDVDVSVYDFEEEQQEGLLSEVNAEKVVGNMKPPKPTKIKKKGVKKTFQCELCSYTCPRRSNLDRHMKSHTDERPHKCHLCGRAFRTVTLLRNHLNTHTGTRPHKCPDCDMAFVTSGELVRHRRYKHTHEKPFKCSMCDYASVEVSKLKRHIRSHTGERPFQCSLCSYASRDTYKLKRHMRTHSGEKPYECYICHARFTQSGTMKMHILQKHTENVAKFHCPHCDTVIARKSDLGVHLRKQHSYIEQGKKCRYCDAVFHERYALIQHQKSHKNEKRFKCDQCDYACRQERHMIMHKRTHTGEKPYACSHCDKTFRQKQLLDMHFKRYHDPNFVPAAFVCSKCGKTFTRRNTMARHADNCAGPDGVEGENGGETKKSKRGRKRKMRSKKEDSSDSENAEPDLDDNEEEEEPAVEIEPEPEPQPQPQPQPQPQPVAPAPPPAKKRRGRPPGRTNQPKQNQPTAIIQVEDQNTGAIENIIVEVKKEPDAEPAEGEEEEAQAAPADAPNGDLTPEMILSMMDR
Briefly: co-IP; endogenous proteins; differentiating rat Schwann cells lysed in NP-40 buffer (170 mM NaCl, 10 mM EDTA, 50 mM Tris pH 7.4, 50 mM NaF, 0.5% NP-40); 300 ug lysate with 2 ug IgG or anti-CTCF antibody, Protein A/G beads; Western blot for SUZ12.

These are yes or no findings as the source states them, for the method shown. Binding seen in cells or lysates may run through a third protein. A result given as binding can be weak or reduced; the word gives no strength.

With SUZ12 (endogenous, rat Schwann cells), the binding result is “binds”.

These data come from publication PMC7431862.
